Test results reported in publication PMC9374667 (Communications Biology, 2022).
Several values for one entry are separate records, joined by “and”; a condition that tells them apart may be missing. Equal values may be shown once. Further values from the same series stand in other lists.

Legend:
Format in all cases: in vivo
[1] = tested on: db/db mice; assay: Indirect calorimetry (CLAMS): VO2, VCO2, RER; parameters: Figure 3g (VCO2), individual mice 1-6: unit not given here; settings: BBR 150mg/kg; for Figure 3e (VO2), individual mice 1-6: in mL/kg/h (unit assumed)
Procedure: (§1) At week 5 of treatment, basal metabolic parameters of mice were measured using the Comprehensive Lab Animal Monitoring System (CLAMS, Columbus Instruments, Columbus, OH). […] The number of times the infrared beams were broken along the X- or Y-axis was used to measure the dynamic activity of mice. The respiratory exchange rate (RER) was calculated using classical Lusk theory and equations RER = VCO2/VO2.

[2] = tested on: db/db mice; assay: Spontaneous motor activity (CLAMS, infrared beam breaks); settings: BBR 150mg/kg, individual mice 1-6
Procedure: as §1

[3] = tested on: db/db mice; assay: Glucose tolerance test (GTT); parameters: unit not given here; settings: individual mice
[4] = tested on: db/db mice; assay: Weekly fasting glucose levels of db/db mice; settings: BJ 150mg/kg, individual mice 1-10, in mmol/L
Procedure: (§2) The lean wild type control and the db/db control mice were given equal vehicle volume (0.5% CMC-Na solution). All mice were monitored for food intake, body weight, and fasting blood glucose during the 35-day trial. Glucose tolerance test (GTT) and insulin resistance test (ITT) were performed at 4 and 5 weeks of treatment, respectively. Metabolic analysis was performed at 5 weeks of treatment. At the end of the study, blood samples were taken through the retroorbital venous sinus of mice, fat depots (brown fat, inguinal subcutaneous fat, epididymal fat, perirenal fat and mesenteric fat depot) were dissected, weighed, and immediately frozen in liquid nitrogen and stored at −80 °C until required. Weight of fat depots are expressed in percentage (fat depots weight /bodyweight * 100%).

[5] = tested on: db/db mice; assay: Insulin tolerance test (ITT), AUC and initial slope; settings: BJ 150mg/kg, individual mice, in mmol/L (unit assumed)
Procedure: Mice were fasted for 4 h for insulin resistance test and intraperitoneally injected with 1 unit/kg of insulin. Blood glucose levels were measured from the tail vein blood at 0, 15, 30, 45, 60, 90, and 120 min after injection. Plasma insulin levels were measured using an ultrasensitive mouse insulin ELISA kit (Nanjing Jiancheng Bioengineering Institute, Nanjing, China).

[6] = tested on: db/db mice; assay: Body weight of db/db mice during 35-day treatment; settings: 150 mg/kg gavage once per day
Procedure: as §2

COc1ccc2cc3[n+](cc2c1OC)CCc1cc2c(cc1-3)OCO2 [BBR, Berberine chloride dihydrate]
Figure 3g (VCO2), individual mice 1-6 ([1]; TIME 06:00:00): 2313.5 and 1840 and 1553.5 and 1397.5 and 1389.5 and 1693 | Figure 3e (VO2), individual mice 1-6 ([1]; TIME 06:00:00): 2660 and 2072 and 1864 and 1708 and 1672.5 and 1935.5 | Figure 3g (VCO2), individual mice 1-6 ([1]; TIME 07:00:00): 1600.5 and 1535.5 and 1875 and 1869 and 1617.5 and 1980 | Figure 3e (VO2), individual mice 1-6 ([1]; TIME 07:00:00): 1795 and 1708 and 2206.5 and 2273.5 and 1978.5 and 2274.5 | Figure 3g (VCO2), individual mice 1-6 ([1]; TIME 08:00:00): 1495 and 1825 and 1975 and 2243.5 and 2132.5 and 1535 | Figure 3e (VO2), individual mice 1-6 ([1]; TIME 08:00:00): 1715 and 2085 and 2314.5 and 2613.5 and 2534 and 1741.5 | Figure 3g (VCO2), individual mice 1-6 ([1]; TIME 1900-01-01 01:00:00): 2177 and 1670 | Figure 3g (VCO2), individual mice 1-6 ([1]; TIME 1900-01-01 02:00:00): 2187 and 1998.5 and 2588.5 and 2274 and 2168.5 and 1984.5 | Figure 3g (VCO2), individual mice 1-6 ([1]; TIME 1900-01-01 03:00:00): 2372.5 and 1993.5 and 2552 and 2306.5 and 1742 and 2336 | Figure 3e (VO2), individual mice 1-6 ([1]; TIME 1900-01-01 03:00:00): 2738 and 2324 and 3012 and 2802 and 2116 and 2720 | Figure 3g (VCO2), individual mice 1-6 ([1]; TIME 1900-01-01 04:00:00): 2538.5 and 2329.5 and 1944 and 1831 and 1537.5 and 2114 | Figure 3e (VO2), individual mice 1-6 ([1]; TIME 1900-01-01 04:00:00): 2910.5 and 2635.5 and 2276.5 and 2239 and 1918 and 2461 | Figure 3g (VCO2), individual mice 1-6 ([1]; TIME 1900-01-01 05:00:00): 2478.5 and 2023.5 and 1428 and 1354 and 1434.5 and 1684.5 | Figure 3e (VO2), individual mice 1-6 ([1]; TIME 1900-01-01 05:00:00): 2911 and 2308.5 and 1773.5 and 1662 and 1687 and 1963.5 | Spontaneous motor activity (Figure 3j) ([2]; TIME 06:00:00): 830.5 and 381.5 and 455 and 214.5 and 282.5 and 1467 | Spontaneous motor activity (Figure 3j) ([2]; TIME 07:00:00): 39 and 818.5 and 315 and 251 and 387.5 and 3173.5 | Spontaneous motor activity (Figure 3j) ([2]; TIME 08:00:00): 96 and 381.5 and 953 and 773 and 549 and 1084 | Spontaneous motor activity (Figure 3j) ([2]; TIME 1900-01-01 01:00:00): 617 and 872.5 | Spontaneous motor activity (Figure 3j) ([2]; TIME 1900-01-01 02:00:00): 233.5 and 654 and 915 and 190.5 and 777 and 170 | Spontaneous motor activity (Figure 3j) ([2]; TIME 1900-01-01 03:00:00): 832 and 535.5 and 566 and 30.5 and 303.5 and 84.5 | Spontaneous motor activity (Figure 3j) ([2]; TIME 1900-01-01 04:00:00): 988 and 900 and 503.5 and 436 and 774 and 437.5 | Spontaneous motor activity (Figure 3j) ([2]; TIME 1900-01-01 05:00:00): 626 and 807 and 81.5 and 1582 and 453 and 418 | blood glucose level ([3]; BBR 150mg/kg, time column 1 of 7 (time not printed)): 14.0 and 15.5 and 13.3

CC(C)Cc1ccc(C(C)C(=O)[O-])cc1.COc1ccc2cc3[n+](cc2c1OC)CCc1cc2c(cc1-3)OCO2.O.O.O.O [BJ, berberine-ibuprofen]
Weekly fasting glucose levels of db/db mice (Figure 5a) ([4]; 1st of 6 weekly columns (time not given)): 11.6 and 15.2 | Weekly fasting glucose levels of db/db mice (Figure 5a) ([4]; 2nd of 6 weekly columns (time not given)): 17.9 and 16.6 | Weekly fasting glucose levels of db/db mice (Figure 5a) ([4]; 3rd of 6 weekly columns (time not given)): 16.9 | Weekly fasting glucose levels of db/db mice (Figure 5a) ([4]; 4th of 6 weekly (time not given)): 18.3 and 9.2 and 11.4 | Weekly fasting glucose levels of db/db mice (Figure 5a) ([4]; 5th of 6 weekly (time not given)): 11.8 and 8.2 and 12.9 | Weekly fasting glucose levels of db/db mice (Figure 5a) ([4]; 6th of 6 weekly (time not given)): 10.6 and 7.9 and 10.2 | blood glucose level ([5]; time column 1 of 7 (time not printed)): 9.6 and 12.9 and 10.6 and 10.3 and 20.2 | blood glucose level ([5]; time column 2 of 7 (time not given)): 9.2 and 11.0 and 10.2 and 19.5 | blood glucose level ([5]; time column 3 of 7 (time not given)): 4.3 and 6.3 and 5.8 and 11.8 | blood glucose level ([5]; time column 4 of 7 (time not given)): 5.6 and 4.6 and 6.1 and 5.1 and 4.8 and 9.4 | blood glucose level ([5]; time column 5 of 7 (time not given)): 4.9 and 3.5 and 5.0 and 4.8 and 9.3 | blood glucose level ([5]; time column 6 of 7 (time not given)): 5.7 and 6.2 and 4.8 and 4.1 and 9.1 | blood glucose level ([5]; time column 7 of 7 (time not printed)): 6.9 and 4.2 and 7.0 and 6.6 and 6.1 and 14.7 | blood glucose level ([3]; BJ 75mg/kg, time column 1 of 7 (time not printed)): 20.1 and 18.7 and 23.3 and 22.6 and 20.8 and 20.2 and 20.6 and 15.8 and 20.7 and 22.7 | blood glucose level ([3]; BJ 75mg/kg, time column 2 of 7 (time not given)): 21.3 and 27.9 and 25.0 and 23.3 and 32.0 and 33.3 and 29.6 and 20.3 and 31.0 and 22.5 | blood glucose level ([3]; BJ 75mg/kg, time column 3 of 7 (time not given)): 25.1 and 33.3 and 31.1 and 31.9 and 32.2 and 26.7 | blood glucose level ([3]; BJ 75mg/kg, time column 4 of 7 (time not given)): 33.3 and 28.6 and 24.9 | blood glucose level ([3]; BJ 75mg/kg, time column 5 of 7 (time not given)): 25.0 and 33.3 and 28.6 and 25.7 | blood glucose level ([3]; BJ 75mg/kg, time column 6 of 7 (time not given)): 26.9 and 32.4 and 22.5 and 33.3 and 20.8 and 32.8 and 30.3 and 29.9 and 20.2 | blood glucose level ([3]; BJ 75mg/kg, time column 7 of 7 (time not printed)): 21.0 and 21.5 and 15.3 and 26.4 and 28.8 and 24.7 and 26.0 and 25.3 and 26.9 and 16.4 | blood glucose level ([3]; BJ 150mg/kg, time column 1 of 7 (time not printed)): 12.0 and 14.3 and 12.4 and 10.8 and 14.8 and 13.7 and 8.5 and 12.9 and 8.8 | blood glucose level ([3]; BJ 150mg/kg, time column 2 of 7 (time not given)): 24.8 and 23.3 and 26.1 and 33.3 and 20.2 and 23.4 and 28.2 and 30.8 and 29.1 and 25.2 | blood glucose level ([3]; BJ 150mg/kg, time column 3 of 7 (time not given)): 31.0 and 22.6 and 27.1 and 30.2 and 22.1 and 22.4 and 32.2 and 33.3 and 23.0 | blood glucose level ([3]; BJ 150mg/kg, time column 4 of 7 (time not given)): 26.1 and 17.6 and 23.8 and 30.3 and 21.9 and 29.5 and 24.9 and 26.9 and 22.2 | blood glucose level ([3]; BJ 150mg/kg, time column 5 of 7 (time not given)): 20.8 and 17.8 and 22.3 and 28.7 and 16.3 and 18.2 and 27.2 and 18.3 and 22.0 and 20.3 | blood glucose level ([3]; BJ 150mg/kg, time column 6 of 7 (time not given)): 15.4 and 12.6 and 20.1 and 26.1 and 19.2 and 14.9 and 22.1 and 18.6 and 17.9 and 16.7 | blood glucose level ([3]; BJ 150mg/kg, time column 7 of 7 (time not printed)): 13.0 and 7.9 and 19.2 and 20.7 and 15.2 and 15.7 and 19.8 and 14.7 and 16.2 and 15.3 | Body weight ([6]; day 1, individual mice): 41 grams and 43 grams and 40 grams and 37 grams and 39 grams and 36 grams | Body weight ([6]; day 4, individual mice): 44 grams and 41 grams and 43 grams and 40 grams and 42 grams and 38 grams and 36 grams | Body weight ([6]; day 7, individual mice): 44 grams and 42 grams and 41 grams and 43 grams and 38 grams and 37 grams | Body weight ([6]; day 10, individual mice): 43 grams and 42 grams and 45 grams and 41 grams and 37 grams and 40 grams | Body weight ([6]; day 13, individual mice): 44 grams and 41 grams and 45 grams and 42 grams and 43 grams and 38 grams | Body weight ([6]; day 16, individual mice): 45 grams and 42 grams and 44 grams and 43 grams | Body weight ([6]; day 19, individual mice): 43 grams and 41 grams and 44 grams and 42 grams and 40 grams | Body weight ([6]; day 22, individual mice): 44 grams and 42 grams and 45 grams and 40 grams and 43 grams and 41 grams | Body weight ([6]; day 25, individual mice): 41 grams and 43 grams and 42 grams and 45 grams and 40 grams | Body weight ([6]; day 28, individual mice): 42 grams and 44 grams and 40 grams and 41 grams | Body weight ([6]; day 31, individual mice): 45 grams and 47 grams and 44 grams and 43 grams and 42 grams | Body weight ([6]; day 34, individual mice): 47 grams and 44 grams and 45 grams and 42 grams
